Measurements taken from PubChem BioAssay AID186 (DTP/NCI, 2004).
Shown are survivors of the treated group in tumour-free mice. Counts of survivors are from the toxicity check (mostly the fifth day) where no day follows; animals may have died later. Schedules are NCI's codes, read here as Q, the interval in days (D) or hours (H), X, the number of doses. Some entries hold several experiments; their values stand side by side, smallest first.

Test system: B6D2F1 mice, nontumored toxicity test, survival
Assay: NCI In Vivo Anticancer Drug Screen. Data for tumor model Nontumored Animals (Toxicity Test) in B6D2F1 (BDF1) mice

CC(=O)NC(CS)C(=O)O (stereo not drawn)
survivor count (dose: 250.0 mg/kg/injection, schedule: Q01DX001 (ip), vehicle: saline): 8 of 8
survivor count (dose: 500.0 mg/kg/injection, schedule: Q01DX001 (ip), vehicle: saline): 8 of 8
survivor count (dose: 600.0 mg/kg/injection, schedule: Q01DX001 (ip), vehicle: saline): 6 of 6
survivor count (dose: 600.0 mg/kg/injection, schedule: Q01DX015 (ip), vehicle: saline): 6 of 6
survivor count (dose: 600.0 mg/kg/injection, schedule: Q07DX003 (ip), vehicle: saline): 6 of 6
survivor count (dose: 750.0 mg/kg/injection, schedule: Q01DX001 (ip), vehicle: saline): 8 of 8
survivor count (dose: 1000.0 mg/kg/injection, schedule: Q01DX001 (ip), vehicle: saline): 6 of 6 and 8 of 8
survivor count (dose: 1000.0 mg/kg/injection, schedule: Q01DX015 (ip), vehicle: saline): 6 of 6
survivor count (dose: 1000.0 mg/kg/injection, schedule: Q07DX003 (ip), vehicle: saline): 6 of 6
survivor count (dose: 1500.0 mg/kg/injection, schedule: Q01DX001 (ip), vehicle: saline): 6 of 6 and 8 of 8
survivor count (dose: 2000.0 mg/kg/injection, schedule: Q01DX001 (ip), vehicle: saline): 7 of 8 and 8 of 8

O=NN(CCCl)C(=O)NC1CCCCC1
survivor count (dose: 2.7 mg/kg/injection, schedule: Q01DX001 (ip), vehicle: saline + alcohol): 10 of 10
survivor count (dose: 4.7 mg/kg/injection, schedule: Q01DX001 (ip), vehicle: saline + alcohol): 10 of 10
survivor count (dose: 5.4 mg/kg/injection, schedule: Q04DX003 (ip), vehicle: other): 5 of 5
survivor count (dose: 9.0 mg/kg/injection, schedule: Q04DX003 (ip), vehicle: other): 5 of 5
survivor count (dose: 9.5 mg/kg/injection, schedule: Q01DX001 (ip), vehicle: saline + alcohol): 10 of 10
survivor count (dose: 15.0 mg/kg/injection, schedule: Q04DX003 (ip), vehicle: other): 5 of 5
survivor count (dose: 18.9 mg/kg/injection, schedule: Q01DX001 (ip), vehicle: saline + alcohol): 10 of 10
survivor count (dose: 21.0 mg/kg/injection, schedule: Q01DX001 (ip), vehicle: carboxymethylcellulose (CMC)): 10 of 10
survivor count (dose: 25.0 mg/kg/injection, schedule: Q04DX003 (ip), vehicle: other): 5 of 5
survivor count (dose: 32.0 mg/kg/injection, schedule: Q01DX001 (ip), vehicle: carboxymethylcellulose (CMC)): 10 of 10
survivor count (dose: 37.8 mg/kg/injection, schedule: Q01DX001 (ip), vehicle: saline + alcohol): 10 of 10
survivor count (dose: 41.7 mg/kg/injection, schedule: Q04DX003 (ip), vehicle: other): 5 of 5
survivor count (dose: 48.0 mg/kg/injection, schedule: Q01DX001 (ip), vehicle: carboxymethylcellulose (CMC)): 10 of 10
survivor count (dose: 50.0 mg/kg/injection, schedule: Q01DX001 (ip), vehicle: carboxymethylcellulose (CMC)): 10 of 10
survivor count (dose: 75.7 mg/kg/injection, schedule: Q01DX001 (ip), vehicle: saline + alcohol): 10 of 10

CO[C@@]12[C@H](COC(N)=O)C3=C(C(=O)C(C)=C(N)C3=O)N1C[C@@H]1N[C@@H]12
survivor count (dose: 0.5 mg/kg/injection, schedule: Q04DX003 (ip), vehicle: saline): 4 of 4
survivor count (dose: 0.9 mg/kg/injection, schedule: Q01DX010 (ip), vehicle: saline): 4 of 4
survivor count (dose: 1.0 mg/kg/injection, schedule: Q04DX003 (ip), vehicle: saline): 4 of 4
survivor count (dose: 1.5 mg/kg/injection, schedule: Q01DX010 (ip), vehicle: saline): 4 of 4
survivor count (dose: 2.0 mg/kg/injection, schedule: Q04DX003 (ip), vehicle: saline): 4 of 4
survivor count (dose: 4.0 mg/kg/injection, schedule: Q04DX003 (ip), vehicle: saline): 4 of 4

Nc1ncn(C2OC(CO)C(O)C2O)c(=O)n1 (stereo not drawn)
survivor count (dose: 0.38 mg/kg/injection, schedule: Q01DX009 (ip), vehicle: saline): 5 of 5
survivor count (dose: 0.75 mg/kg/injection, schedule: Q01DX009 (ip), vehicle: saline): 5 of 5
survivor count (dose: 1.25 mg/kg/injection, schedule: Q04DX003 (ip), vehicle: saline): 8 of 8
survivor count (dose: 1.5 mg/kg/injection, schedule: Q01DX009 (ip), vehicle: saline): 5 of 5
survivor count (dose: 2.5 mg/kg/injection, schedule: Q04DX003 (ip), vehicle: saline): 8 of 8
survivor count (dose: 3.0 mg/kg/injection, schedule: Q01DX009 (ip), vehicle: saline): 5 of 5
survivor count (dose: 5.0 mg/kg/injection, schedule: Q04DX003 (ip), vehicle: saline): 8 of 8
survivor count (dose: 6.0 mg/kg/injection, schedule: Q01DX009 (ip), vehicle: saline): 5 of 5
survivor count (dose: 10.0 mg/kg/injection, schedule: Q04DX003 (ip), vehicle: saline): 8 of 8
survivor count (dose: 20.0 mg/kg/injection, schedule: Q04DX003 (ip), vehicle: saline): 8 of 8
survivor count (dose: 40.0 mg/kg/injection, schedule: Q04DX003 (ip), vehicle: saline): 8 of 8
